For three variants, response results are on record in publication PMC12753876 (2025).

B1: CRY1^(PHR WT) in pGADT7 (AD) [Arabidopsis thaliana] / HsFA3^WT in pGBKT7 (BD) [Arabidopsis thaliana] (parent complex)
chain 1: MSGSVSGCGSGGCSIVWFRRDLRVEDNPALAAAVRAGPVIALFVWAPEEEGHYHPGRVSRWWLKNSLAQLDSSLRSLGTCLITKRSTDSVASLLDVVKSTGASQIFFNHLYDPLSLVRDHRAKDVLTAQGIAVRSFNADLLYEPWEVTDELGRPFSMFAAFWERCLSMPYDPESPLLPPKKIISGDVSKCVADPLVFEDDSEKGSNALLARAWSPGWSNGDKALTTFINGPLLEYSKNRRKADSATTSFLSPHLHFGEVSVRKVFHLVRIKQVAWANEGNEAGEESVNLFLKSIGLREYSRYISFNHPYSHERPLLGHLKFFPWAVDENYFKAWRQGRTGYPLVDAGMRELWATGWLHDRIRVVVSSFFVKVLQLPWRWGMKYFWDTLLDADLESDALGWQYITGTLPDSREFDRIDNPQFEGYKFDPNGEYVRRWLPELSRLPTDWIHHPWNAPESVLQAAGIELGSNYPLPIVGLDEAKARLHEALSQMWQLEAASRAAIENGSEE
chain 2: MSPKKDAVSKPTPISVPVSRRSDIPGSLYVDTDMGFSGSPLPMPLDILQGNPIPPFLSKTFDLVDDPTLDPVISWGLTGASFVVWDPLEFARIILPRNFKHNNFSSFVRQLNTYGFRKIDTDKWEFANEAFLRGKKHLLKNIHRRRSPQSNQTCCSSTSQSQGSPTEVGGEIEKLRKERRALMEEMVELQQQSRGTARHVDTVNQRLKAAEQRQKQLLSFLAKLFQNRGFLERLKNFKGKEKGGALGLEKARKKFIKHHQQPQDSPTGGEVVKYEADDWERLLMYDEETENTKGLGGMTSSDPKGKNLMYPSEEEMSKPDYLMSFPSPEGLIKQEETTWSMGFDTTIPSFSNTDAWGNTMDYNDVSEFGFAAETTSDGLPDVCWEQFAAGITETGFNWPTGDDDDNTPMNDP
B2: CRY1^(PHR WT) in pGADT7 (AD) [Arabidopsis thaliana] / HsFB2b^WT in pGBKT7 (BD) [Arabidopsis thaliana] (parent complex)
chain 1: B1 chain 1
chain 2: MPGEQTGETPTVAGVGGGGAGCSAGNSGGSSGCGAGGGGGGSGGGGGGGGDSQRSIPTPFLTKTYQLVEDPVYDELISWNEDGTTFIVWRPAEFARDLLPKYFKHNNFSSFVRQLNTYGFRKVVPDRWEFSNDCFKRGEKILLRDIQRRKISQPAMAAAAAAAAAAVAASAVTVAAVPVVAHIVSPSNSGEEQVISSNSSPAAAAAAIGGVVGGGSLQRTTSCTTAPELVEENERLRKDNERLRKEMTKLKGLYANIYTLMANFTPGQEDCAHLLPEGKPLDLLPERQEMSEAIMASEIETGIGLKLGEDLTPRLFGVSIGVKRARREEELGAAEEEDDDRREAAAQEGEQSSDVKAEPMEENNSGNHNGSWLELGK

Variants of B1 are the subject of the first test. The test can be described thus: yeast two-hybrid (beta-galactosidase, Miller units); n=3; parent: 280; read off a plot.
On to chain 2 E173R, for which the response was about 210 Miller Units.

A further test covers variants of B1. The description is as above. This is another data set of the same source.
Consider chain 2 K174A, chain 2 K177A, chain 2 E178A, for which the response is about 150 Miller Units.

In the next test the parent is B2. In words: yeast two-hybrid (beta-galactosidase, Miller units); n=3; parent: 0.07; read off a plot.
As to chain 2 K249E, the response was about 0.1 Miller Units.
